## Melanoma cell counts after drug treatment

Source: doi:10.1371/journal.pone.0140310, primary screening data, rounded.

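Human melanoma cell lines in 1,536-well plates were treated with a pair of drugs for 72 h, then fixed, stained and imaged. Each value is the count of nuclei relative to DMSO-treated wells, in %, so that 100 equals the control. Every drug was used at one fixed concentration, the higher of two screened. These are primary screening values without error estimates.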 An unselected part of the screen is shown.

All values are for the listed drug together with CX-4945 (2000 nM): O=C(O)c1ccc2c(c1)nc(Nc1cccc(Cl)c1)c1ccncc12

Compounds and concentrations:
XAV939: Oc1nc(-c2ccc(C(F)(F)F)cc2)nc2c1CSCC2 at 10000 nM
ruxolitinib: N#CC[C@H](C1CCCC1)n1cc(-c2ncnc3[nH]ccc23)cn1 at 5000 nM
dasatinib: Cc1nc(Nc2ncc(C(=O)Nc3c(C)cccc3Cl)s2)cc(N2CCN(CCO)CC2)n1 at 20 nM
BMS-536924: Cc1cc(N2CCOCC2)cc2[nH]c(-c3c(NC[C@@H](O)c4cccc(Cl)c4)cc[nH]c3=O)nc12 at 1000 nM
SNS-314: O=C(Nc1cccc(Cl)c1)Nc1ncc(CCNc2ncnc3ccsc23)s1 at 4 nM
MK-1775: C=CCn1c(=O)c2cnc(Nc3ccc(N4CCN(C)CC4)cc3)nc2n1-c1cccc(C(C)(C)O)n1 at 100 nM
selumetinib: Cn1cnc2c(F)c(Nc3ccc(Br)cc3Cl)c(C(=O)NOCCO)cc21 at 75 nM
ABT-263: CC1(C)CCC(c2ccc(Cl)cc2)=C(CN2CCN(c3ccc(C(=O)NS(=O)(=O)c4ccc(N[C@H](CCN5CCOCC5)CSc5ccccc5)c(S(=O)(=O)C(F)(F)F)c4)cc3)CC2)C1 at 2000 nM
nilotinib: Cc1cn(-c2cc(NC(=O)c3ccc(C)c(Nc4nccc(-c5cccnc5)n4)c3)cc(C(F)(F)F)c2)cn1 at 1000 nM
ENMD-2076: Cc1cc(Nc2cc(N3CCN(C)CC3)nc(/C=C/c3ccccc3)n2)n[nH]1 at 200 nM
midostaurin: CO[C@@H]1[C@H](N(C)C(=O)c2ccccc2)C[C@H]2O[C@]1(C)n1c3ccccc3c3c4c(c5c6ccccc6n2c5c31)C(=O)NC4 at 400 nM
lenalidomide: Nc1cccc2c1CN(C1CCC(=O)NC1=O)C2=O (stereo not given) at 5000 nM
CHIR-265: Cn1c(Nc2ccc(C(F)(F)F)cc2)nc2cc(Oc3ccnc(-c4ncc(C(F)(F)F)[nH]4)c3)ccc21 at 400 nM
GSK650394: O=C(O)c1ccc(-c2c[nH]c3ncc(-c4ccccc4)cc23)cc1C1CCCC1 at 800 nM
IMD-0354: O=C(Nc1cc(C(F)(F)F)cc(C(F)(F)F)c1)c1cc(Cl)ccc1O at 80 nM
LFM-A13: C/C(O)=C(\C#N)C(=O)Nc1cc(Br)ccc1Br at 10000 nM
lestaurtinib: C[C@]12O[C@H](C[C@]1(O)CO)n1c3ccccc3c3c4c(c5c6ccccc6n2c5c31)CNC4=O at 20 nM
MK-2206: NC1(c2ccc(-c3nc4ccn5c(=O)[nH]nc5c4cc3-c3ccccc3)cc2)CCC1 at 2000 nM
decitabine: Nc1ncn([C@H]2C[C@H](O)[C@@H](CO)O2)c(=O)n1 at 500 nM
YM155: COCC[n+]1c2c(n(Cc3cnccn3)c1C)C(=O)c1ccccc1C2=O at 2 nM
everolimus: CO[C@H]1C[C@@H]2CC[C@@H](C)[C@@](O)(O2)C(=O)C(=O)N2CCCC[C@H]2C(=O)O[C@H]([C@H](C)C[C@@H]2CC[C@@H](OCCO)[C@H](OC)C2)CC(=O)[C@H](C)/C=C(\C)[C@@H](O)[C@@H](OC)C(=O)[C@H](C)C[C@H](C)/C=C/C=C/C=C/1C at 100 nM
lapatinib: CS(=O)(=O)CCNCc1ccc(-c2ccc3ncnc(Nc4ccc(OCc5cccc(F)c5)c(Cl)c4)c3c2)o1 at 4000 nM
enzastaurin: Cn1cc(C2=C(c3cn(C4CCN(Cc5ccccn5)CC4)c4ccccc34)C(=O)NC2=O)c2ccccc21 at 4000 nM
temozolomide: Cn1nnc2c(C(N)=O)ncn2c1=O at 10000 nM
SU6656: CN(C)S(=O)(=O)c1ccc2c(c1)/C(=C/c1cc3c([nH]1)CCCC3)C(=O)N2 at 2000 nM
dovitinib: CN1CCN(c2ccc3nc(-c4c(N)c5c(F)cccc5[nH]c4=O)[nH]c3c2)CC1 at 500 nM
tozasertib: Cc1cc(Nc2cc(N3CCN(C)CC3)nc(Sc3ccc(NC(=O)C4CC4)cc3)n2)n[nH]1 at 30 nM

Second drug,WM451Lu,COLO 792,WM3619,COLO 800,COLO 829,C32
midostaurin,58.5,34.2,78.5,24.5,51.6,81.8
XAV939,104,58.9,65.3,74.7,69.1,98.5
ABT-263,66.6,2.9,38.0,11.9,37.7,58.7
enzastaurin,82.0,61.9,91.1,105,76.3,75.5
GSK650394,81.1,69.3,69.1,56.5,62.1,91.6
lenalidomide,92.7,69.7,84.5,40.5,51.6,92.0
decitabine,76.6,62.6,49.2,43.5,43.4,90.9
tozasertib,70.8,66.5,57.6,18.1,37.1,73.3
dasatinib,47.1,37.4,64.8,51.2,20.3,73.5
lestaurtinib,88.2,54.8,68.2,33.9,68.4,98.1
temozolomide,71.7,52.3,68.5,64.9,57.1,69.9
everolimus,63.1,33.6,71.4,62.1,50.5,82.5
dovitinib,72.7,50.3,69.0,77.9,28.9,83.7
MK-2206,64.1,38.4,79.5,73.3,48.8,77.9
IMD-0354,121,89.7,90.9,82.8,59.2,111
SNS-314,43.6,28.3,48.4,45.4,48.2,57.6
LFM-A13,86.5,64.2,71.2,65.0,50.7,85.6
BMS-536924,103,43.8,66.1,15.2,79.1,64.9
SU6656,60.3,38.9,53.5,30.0,33.7,84.5
MK-1775,85.5,59.0,31.6,45.4,36.1,93.4
nilotinib,87.2,66.7,73.4,64.3,78.2,101
selumetinib,61.4,51.6,33.3,73.9,66.3,68.2
lapatinib,78.9,42.6,62.3,48.8,33.6,83.6
ENMD-2076,71.2,55.4,69.7,51.8,50.2,91.5
CHIR-265,44.1,22.1,49.4,90.5,59.2,54.7
YM155,21.6,55.3,69.7,17.7,35.0,90.9
ruxolitinib,74.4,89.1,103,111,105,104

Once more, the final 3:

- CHIR-265 | WM451Lu: 44.1; COLO 792: 22.1; WM3619: 49.4; COLO 800: 90.5; COLO 829: 59.2; C32: 54.7
- YM155 | WM451Lu: 21.6; COLO 792: 55.3; WM3619: 69.7; COLO 800: 17.7; COLO 829: 35.0; C32: 90.9
- ruxolitinib | WM451Lu: 74.4; COLO 792: 89.1; WM3619: 103; COLO 800: 111; COLO 829: 105; C32: 104